According to patent publication US20250064758A1 (priority 2023, published 2025):
Read-outs that look alike come from different tables or passages of the source.

Key:
HCoV-229E [1] = test: microbe, parasite or virus in culture; conditions: Human coronavirus 229E, Huh-7, read-out: IC50 calculated by viral gene copies
MERS-COV = test: microbe, parasite or virus in culture; conditions: Middle East respiratory syndrome-related coronavirus, VeroE6/TMPRSS2, read-out: IC50 calculated by viral gene copies
HCoV-229E [2] = conditions: read-out: IC50 calculated by viral gene copies
SARS-COV = test: microbe, parasite or virus in culture; conditions: Severe acute respiratory syndrome coronavirus, VeroE6/TMPRSS2, read-out: IC50 calculated by viral gene copies

SMILES: CC(C)NCC(O)COc1cccc2ccccc12 (stereo not shown) [Propranolol, 1-(isopropylamino)-3-(1-naphthyloxy)-2-propanol]
- IC50 (HCoV-229E [1]): 7.15 µM
- IC50 (MERS-COV): 17.7 µM
- IC50 (HCoV-229E [2]): 9.74 µM
- IC50 (SARS-COV): 19.6 µM
